From PubChem BioAssay AID2662 (National Center for Advancing Translational Sciences (NCATS), 2010)
About 110 (0.038%) of roughly 290,000 compounds were called active. This list was built around the results that the source calls inconclusive (neither active nor inactive); the mix of calls is not that of the screen. Calls follow the shape of the dose curve; as a rule, active = well fitted inhibition curve with a large enough effect in the polarisation, with a control signal flat (not every such curve was filed as active); inconclusive = small, poorly fitted or top-dose-only effect, or effect the other way, or a change in a side signal; inactive = no such curve, though single readings can be large or run the other way; the % refers to the polarisation. Potencies of inconclusive entries are doubtful fits and often do not repeat. A note “side channel” means that the fit belongs to a control or component signal, not to the main read-out.

By UniProt entry, the sequences of proteins in these tests, tags left out.
UniProt Q03164, whole entry, looked up: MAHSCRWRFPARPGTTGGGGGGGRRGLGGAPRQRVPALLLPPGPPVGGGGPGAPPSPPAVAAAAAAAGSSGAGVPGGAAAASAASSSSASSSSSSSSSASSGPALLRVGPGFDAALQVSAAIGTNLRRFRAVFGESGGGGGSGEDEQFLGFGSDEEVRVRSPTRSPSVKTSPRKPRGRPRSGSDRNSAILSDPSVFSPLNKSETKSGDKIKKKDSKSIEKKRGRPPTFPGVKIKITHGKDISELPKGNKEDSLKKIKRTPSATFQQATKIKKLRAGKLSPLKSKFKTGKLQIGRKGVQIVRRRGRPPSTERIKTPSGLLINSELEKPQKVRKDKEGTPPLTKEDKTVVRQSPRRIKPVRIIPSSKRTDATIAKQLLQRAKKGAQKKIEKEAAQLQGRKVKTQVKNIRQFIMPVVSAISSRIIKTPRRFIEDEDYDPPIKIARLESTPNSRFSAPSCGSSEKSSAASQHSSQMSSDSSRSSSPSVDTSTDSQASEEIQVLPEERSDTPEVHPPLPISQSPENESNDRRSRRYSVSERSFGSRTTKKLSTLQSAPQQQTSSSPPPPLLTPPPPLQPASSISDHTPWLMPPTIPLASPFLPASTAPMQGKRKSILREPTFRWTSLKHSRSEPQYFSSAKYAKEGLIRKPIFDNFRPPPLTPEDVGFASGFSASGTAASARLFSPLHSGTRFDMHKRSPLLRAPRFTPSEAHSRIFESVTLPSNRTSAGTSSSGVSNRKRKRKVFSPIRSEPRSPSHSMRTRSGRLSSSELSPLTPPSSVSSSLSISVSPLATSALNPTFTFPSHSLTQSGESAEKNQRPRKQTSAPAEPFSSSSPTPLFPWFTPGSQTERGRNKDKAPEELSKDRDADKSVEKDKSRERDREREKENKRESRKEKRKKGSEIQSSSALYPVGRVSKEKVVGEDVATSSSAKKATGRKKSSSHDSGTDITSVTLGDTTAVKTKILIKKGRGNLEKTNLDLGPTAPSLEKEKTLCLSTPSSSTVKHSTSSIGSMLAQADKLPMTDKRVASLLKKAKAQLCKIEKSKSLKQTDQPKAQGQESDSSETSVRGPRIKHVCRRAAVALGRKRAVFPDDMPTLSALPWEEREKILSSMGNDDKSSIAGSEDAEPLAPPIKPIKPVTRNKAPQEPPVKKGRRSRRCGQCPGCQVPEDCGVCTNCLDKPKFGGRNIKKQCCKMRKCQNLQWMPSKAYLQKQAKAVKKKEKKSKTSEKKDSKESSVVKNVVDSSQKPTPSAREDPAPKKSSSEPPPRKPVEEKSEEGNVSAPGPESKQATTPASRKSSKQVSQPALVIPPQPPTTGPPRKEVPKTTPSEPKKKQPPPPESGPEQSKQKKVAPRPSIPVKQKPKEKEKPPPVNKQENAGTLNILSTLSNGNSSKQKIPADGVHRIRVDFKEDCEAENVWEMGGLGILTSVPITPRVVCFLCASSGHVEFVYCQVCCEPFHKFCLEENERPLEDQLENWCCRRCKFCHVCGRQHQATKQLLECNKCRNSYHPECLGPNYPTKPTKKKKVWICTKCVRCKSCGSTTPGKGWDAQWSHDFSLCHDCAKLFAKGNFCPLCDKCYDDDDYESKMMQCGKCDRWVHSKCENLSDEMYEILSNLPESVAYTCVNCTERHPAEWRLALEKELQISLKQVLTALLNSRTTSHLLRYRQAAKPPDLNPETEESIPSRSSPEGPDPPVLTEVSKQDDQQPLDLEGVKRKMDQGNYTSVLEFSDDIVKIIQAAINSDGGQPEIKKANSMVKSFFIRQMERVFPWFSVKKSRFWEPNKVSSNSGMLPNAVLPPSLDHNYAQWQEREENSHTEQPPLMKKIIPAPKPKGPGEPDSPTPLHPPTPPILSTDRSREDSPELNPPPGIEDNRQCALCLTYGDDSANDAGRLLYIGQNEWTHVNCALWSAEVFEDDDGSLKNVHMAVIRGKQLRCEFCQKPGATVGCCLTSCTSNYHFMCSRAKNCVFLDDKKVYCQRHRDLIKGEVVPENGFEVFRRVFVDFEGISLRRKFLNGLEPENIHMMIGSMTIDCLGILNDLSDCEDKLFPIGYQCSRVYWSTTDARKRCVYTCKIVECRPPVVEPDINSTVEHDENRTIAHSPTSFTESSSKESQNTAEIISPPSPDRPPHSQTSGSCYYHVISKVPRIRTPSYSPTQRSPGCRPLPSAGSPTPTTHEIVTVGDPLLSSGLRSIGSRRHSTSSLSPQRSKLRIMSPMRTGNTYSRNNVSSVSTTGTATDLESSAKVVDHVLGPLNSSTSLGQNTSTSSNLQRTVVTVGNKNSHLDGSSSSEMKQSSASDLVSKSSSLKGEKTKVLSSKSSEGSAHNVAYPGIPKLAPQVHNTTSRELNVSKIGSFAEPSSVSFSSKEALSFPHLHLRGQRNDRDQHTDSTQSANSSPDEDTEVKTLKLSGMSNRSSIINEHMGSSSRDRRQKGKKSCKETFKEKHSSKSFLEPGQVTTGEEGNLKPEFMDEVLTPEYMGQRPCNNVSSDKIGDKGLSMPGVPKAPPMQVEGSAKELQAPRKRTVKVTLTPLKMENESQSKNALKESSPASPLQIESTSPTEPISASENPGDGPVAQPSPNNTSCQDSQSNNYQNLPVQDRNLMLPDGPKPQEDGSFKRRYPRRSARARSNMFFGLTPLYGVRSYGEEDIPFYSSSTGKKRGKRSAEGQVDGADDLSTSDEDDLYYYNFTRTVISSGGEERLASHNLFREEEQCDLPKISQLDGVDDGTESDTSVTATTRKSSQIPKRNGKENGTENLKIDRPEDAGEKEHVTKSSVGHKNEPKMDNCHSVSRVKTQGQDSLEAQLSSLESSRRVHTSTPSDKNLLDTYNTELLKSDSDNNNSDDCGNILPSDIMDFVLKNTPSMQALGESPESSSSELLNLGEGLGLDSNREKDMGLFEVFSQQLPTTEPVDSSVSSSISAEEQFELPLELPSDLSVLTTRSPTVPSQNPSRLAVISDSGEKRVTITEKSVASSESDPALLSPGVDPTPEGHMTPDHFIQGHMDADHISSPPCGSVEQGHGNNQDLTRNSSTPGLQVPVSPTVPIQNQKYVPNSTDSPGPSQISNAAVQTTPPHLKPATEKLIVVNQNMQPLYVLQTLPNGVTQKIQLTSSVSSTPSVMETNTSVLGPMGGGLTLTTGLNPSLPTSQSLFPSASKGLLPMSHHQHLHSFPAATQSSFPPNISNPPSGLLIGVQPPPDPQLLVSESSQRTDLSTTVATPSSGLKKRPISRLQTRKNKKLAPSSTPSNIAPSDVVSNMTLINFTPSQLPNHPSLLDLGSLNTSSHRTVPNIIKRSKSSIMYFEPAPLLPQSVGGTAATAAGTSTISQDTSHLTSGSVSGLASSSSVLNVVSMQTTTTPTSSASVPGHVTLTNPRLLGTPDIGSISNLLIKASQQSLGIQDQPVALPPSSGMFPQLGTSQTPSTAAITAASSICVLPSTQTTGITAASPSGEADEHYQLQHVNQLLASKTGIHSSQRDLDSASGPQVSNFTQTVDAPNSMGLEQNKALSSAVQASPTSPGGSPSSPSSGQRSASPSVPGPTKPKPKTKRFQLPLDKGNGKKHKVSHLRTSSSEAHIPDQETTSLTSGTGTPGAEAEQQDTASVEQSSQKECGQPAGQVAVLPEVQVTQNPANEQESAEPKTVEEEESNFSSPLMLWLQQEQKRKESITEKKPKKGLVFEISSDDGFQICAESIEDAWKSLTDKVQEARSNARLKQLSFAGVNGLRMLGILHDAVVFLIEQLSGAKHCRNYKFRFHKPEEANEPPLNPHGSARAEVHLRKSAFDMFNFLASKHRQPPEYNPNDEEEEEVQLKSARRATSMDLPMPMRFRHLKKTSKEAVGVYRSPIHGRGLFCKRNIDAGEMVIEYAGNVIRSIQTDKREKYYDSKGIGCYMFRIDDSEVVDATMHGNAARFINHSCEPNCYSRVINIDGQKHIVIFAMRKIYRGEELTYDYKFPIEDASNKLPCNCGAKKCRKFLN

These molecules were tested against Histone-lysine N-methyltransferase 2A (Homo sapiens) (UniProt Q03164) (assay: qHTS Fluorescence Polarization Assay for Inhibitors of MLL CXXC domain - DNA interaction). Conditions: MLL-CXXC / FITC-HOXA9 DNA fluorescence polarization; activity change, negative = inhibition: at 115 µM (top of the series).
Method in brief: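 Purified MLL-CXXC (added from a 7 uM solution) was preincubated 5 min at ambient with pinned compounds in 50 mM Tris-HCl pH 7.5, 50 mM NaCl, 1 mM DTT, 0.05% BSA. Fluorescein-labeled HOX-A9 DNA (50 nM solution) followed, 30 min, then polarization read.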
Potency is read from the fitted curve at half-maximal effect.

SMILES | Potency | activity change, negative = inhibition
Cc1ccc(-c2cc(C(=O)O)n(-c3ccc(S(N)(=O)=O)cc3)n2)cc1 | inconclusive: 12.6 µM [fluorescent, side channel, partial curve] | 
O=[N+]([O-])c1ccc(C2=NN(c3ccccc3)C(c3ccco3)C2)cc1 (configuration not stated) |  | inactive: 27%
Nc1c(N=Nc2ccc(-c3ccc(N=Nc4cc(S(=O)(=O)O)c5ccccc5c4N)cc3)cc2)cc(S(=O)(=O)O)c2ccccc12 | active: 35.5 µM | 
CC1CCCN(CCCNC(=O)c2cc3c(Cl)nc4ccccc4c3s2)C1 (configuration not stated) | inconclusive: 89.1 µM [inhibitor, single point] | 
COc1ccc(OC)c2c1C(=O)c1ccccc1C2=O | inconclusive: 31.6 µM [fluorescent, side channel, partial curve] | 
Cc1cccc(NC(=O)[C@H](Cc2c[nH]c3ccccc23)NC(=O)[C@@H]2Cc3ccccc3CN2)c1 | inconclusive: 39.8 µM [quencher, side channel, partial curve] | 
O=C(c1ccccc1)C1CCN(C(=O)c2c(F)cccc2F)CC1 | inconclusive: 70.8 µM [inhibitor, single point] | 
O=S(=O)(NCc1ccccc1)NCc1ccccc1F | inconclusive: 100 µM [fluorescent, side channel, partial curve, poor fit] | 
COc1ccc2occ(C(=O)c3ccc(N)cc3)c2c1 | inconclusive: 8.91 µM [inhibitor, full curve] | 
CCCCn1c(N)c(N(CCOC)C(=O)c2ccc3c(c2)C(=O)N(c2cc(C)ccc2C)C3=O)c(=O)[nH]c1=O | inconclusive: 50.1 µM [inhibitor, single point] | 
NS(=O)(=O)c1ccc(CCNC(=O)C(=O)c2cn(CC(=O)N3CCCC3)c3ccccc23)cc1 | inconclusive: 35.5 µM [fluorescent, side channel, single point] | 
O=C(Nc1ccc(S(=O)(=O)N2CCCC2)cc1)c1cc(=O)c2ccccc2o1 | inconclusive: 70.8 µM [inhibitor, partial curve] | 
COc1cc2c(cc1OC)C(c1cc3cc4c(cc3[nH]c1=O)OCO4)N(C(=O)C1CC1)CC2 (configuration not stated) | inconclusive: 31.6 µM [inhibitor, single point] | 
O=C(O)c1ccc2cccc(O)c2n1 | inconclusive: 31.6 µM [quencher, side channel, partial curve] | 
O=C(NC1CCCCC1)c1cc(Cl)nc2ccccc12 | inconclusive: 31.6 µM [fluorescent, side channel, single point] | 
COc1ccc(NC(=O)CN(C)S(=O)(=O)c2ccc3c(c2)c(=O)n(C)c(=O)n3C)cc1 | inconclusive: 14.1 µM [quencher, side channel, single point] | 
O=C(Nc1cccc2ccccc12)c1cc2c(cc1Br)OCO2 |  | inactive: 11.1%
Cc1ccc(S(=O)(=O)c2ncccc2N)cc1 | inconclusive: 1.58 µM [quencher, side channel, full curve, poor fit] | 
O=C(Nc1cc(C(=O)Nc2ccc(S(=O)(=O)O)cc2S(=O)(=O)O)cc(C(=O)Nc2ccc(S(=O)(=O)O)cc2S(=O)(=O)O)c1)Nc1cc(C(=O)Nc2ccc(S(=O)(=O)O)cc2S(=O)(=O)O)cc(C(=O)Nc2ccc(S(=O)(=O)O)cc2S(=O)(=O)O)c1 | active: 3.55 µM | 
S=c1[nH]nc(-c2ccccn2)n1/N=C/c1ccccc1 |  | inactive: -5.32%
Cc1cccc(C)c1Nc1nnc(SCC(=O)Nc2cc(S(=O)(=O)N3CCCCC3)ccc2Cl)s1 | inconclusive: 11.2 µM [inhibitor, full curve] | 

5 of the compounds above, comma-delimited:
SMILES,Potency,"activity change, negative = inhibition"
CCCCn1c(N)c(N(CCOC)C(=O)c2ccc3c(c2)C(=O)N(c2cc(C)ccc2C)C3=O)c(=O)[nH]c1=O,"inconclusive: 50.1 µM [inhibitor, single point]",
NS(=O)(=O)c1ccc(CCNC(=O)C(=O)c2cn(CC(=O)N3CCCC3)c3ccccc23)cc1,"inconclusive: 35.5 µM [fluorescent, side channel, single point]",
O=C(Nc1ccc(S(=O)(=O)N2CCCC2)cc1)c1cc(=O)c2ccccc2o1,"inconclusive: 70.8 µM [inhibitor, partial curve]",
COc1cc2c(cc1OC)C(c1cc3cc4c(cc3[nH]c1=O)OCO4)N(C(=O)C1CC1)CC2 (configuration not stated),"inconclusive: 31.6 µM [inhibitor, single point]",
O=C(O)c1ccc2cccc(O)c2n1,"inconclusive: 31.6 µM [quencher, side channel, partial curve]",

Additional records follow.

SMILES | Potency | activity change, negative = inhibition
NC(N)=N/N=C/c1ccc(OCc2ccc(Cl)cc2)cc1 | inconclusive: 63.1 µM [quencher, side channel, single point] | 
O=C(Nc1c(C(=O)O)[nH]c2ccc(F)cc12)c1cccc(C(F)(F)F)c1 | inconclusive: 8.91 µM [quencher, side channel, partial curve] | 
COc1ccc(N=Cc2c(O)cc(C)oc2=O)cc1 | inconclusive: 35.5 µM [fluorescent, side channel, partial curve] | 
O=[N+]([O-])c1cc([N+](=O)[O-])c(Oc2c(F)ccc(F)c2F)cc1NN1CCCCC1 |  | inactive: 0.712%
Fc1cccc(Cl)c1CNc1ccc(N2CCCC2)cc1 |  | inactive: -6.71%
O=C1C(C=Nc2ccccc2O)=C(O)c2ccccc21 | inconclusive: 89.1 µM [quencher, side channel, single point] | 
CCc1ccc(S(=O)(=O)NCCc2csc(C)n2)s1 | inconclusive: 89.1 µM [inhibitor, single point] | 
COc1ccc(/C=C2/C(=O)ON=C2C)cc1Br |  | inactive: -2.38%
CN(CCCCCC(=O)/C=N/O)Cc1ccccc1 |  | inactive: 1.95%
COc1ccc(/C=C/C(=O)Oc2cc(O)cc(O)c2)cc1 | inconclusive: 31.6 µM [fluorescent, side channel, single point] | 
COc1ccc2c(/C=C/c3cc[n+](C)cc3)c[nH]c2c1 | inconclusive: 63.1 µM [fluorescent, side channel, single point] | 
Cc1ccc(N=Nc2ccc(N)cc2C)c(S(N)(=O)=O)c1 | inconclusive: 63.1 µM [fluorescent, side channel, single point] | 
CC(=O)NC(c1cccc([N+](=O)[O-])c1)c1ccc2cccnc2c1O (configuration not stated) | inconclusive: 35.5 µM [inhibitor, single point] | 
NC(=O)C1=C[C@@H](c2ccc(Br)cc2)C[C@@H](OCCCCO)O1 | inconclusive: 31.6 µM [inhibitor, partial curve] | 
CCc1cc(C(=O)N/N=C/c2ccc(O)cc2O)c2ccccc2n1 |  | inactive: -24.3%
Fc1ccc(N=C2NN=C(c3cc(F)ccc3F)CS2)cc1 |  | inactive: -1.15%
CC1(C)CC(=O)C(C(C2=C(O)CC(C)(C)CC2=O)c2ccco2)C(=O)C1 (configuration not stated) | inconclusive: 35.5 µM [inhibitor, single point] | 
Cc1ccccc1-n1c(=O)n(Cc2ccco2)c(=O)c2[nH]cnc21 | inconclusive: 63.1 µM [fluorescent, side channel, single point] | 
c1ccc2c(NCCc3c[nH]c4ccccc34)c3ccccc3nc2c1 | inconclusive: 50.1 µM [fluorescent, side channel, single point] | 
CC(=O)Nc1ccc(NC(=O)CCCCCn2nnc3ccccc3c2=O)cc1 | inconclusive: 1.58 µM [inhibitor, full curve, poor fit] | 
COc1ccc(/C=C/C(=O)OCC(=O)Nc2cc3oc4ccccc4c3cc2OC)cc1 | inconclusive: 7.94 µM [fluorescent, side channel, partial curve, poor fit] | 

SMILES | Potency | activity change, negative = inhibition
O=C(NCc1ccccn1)Nc1ccccc1Cl | inconclusive: 63.1 µM [fluorescent, side channel, single point] | 
Nc1c(C(=O)Nc2nccs2)sc2nc(-c3cccs3)cc(C(F)(F)F)c12 | inconclusive: 35.5 µM [fluorescent, side channel, partial curve] | 
COc1ccc(C2=NN(C(=O)c3ccccc3)C(c3ccccc3)C2)c(O)c1 (configuration not stated) | inconclusive: 70.8 µM [fluorescent, side channel, single point] | 
Cc1ccc(N=Cc2sc(O)c3ccccc23)c(C)c1 | inconclusive: 31.6 µM [fluorescent, side channel, partial curve] | 
COc1cc(/C=C(\C#N)C(=O)c2c[nH]c3ccccc23)cc(OC)c1O | inconclusive: 5.01 µM [fluorescent, side channel, full curve] | 
CCC(=O)c1ccc(N2CCN(C(=O)c3ccccc3Br)CC2)c(F)c1 |  | inactive: 7.55%
CNCc1ccccc1Sc1cc(O)ccc1O |  | inactive: 8.25%
Cc1ccc(C(=O)N2CCNC(=O)C2CC(=O)Nc2ccccc2)cc1 (configuration not stated) | inconclusive: 14.1 µM [quencher, side channel, single point] | 
COc1cccc(C(=O)Nc2c3c(nn2-c2cccc(C)c2C)CS(=O)C3)c1OC (configuration not stated) | inconclusive: 1.41 µM [fluorescent, side channel, partial curve, poor fit] | 
O=S(=O)(Nc1ccc2c(c1)OCCO2)c1c(F)cccc1F |  | inactive: 4.91%
Cc1ccc(S(=O)(=O)Nc2ccc3c(c2)nc(CCN2CCCCC2)n3C)cc1 |  | inactive: 12.3%
S=C(NCc1ccc2c(c1)OCO2)NCc1ccco1 | inconclusive: 31.6 µM [fluorescent, side channel, partial curve] | 
CC(C)C(O)(C(=O)NNc1ccccc1)C(C)C |  | inactive: 7.1%
COc1ccc(/C(O)=C2/C(=O)C(=O)N(Cc3cccnc3)C2c2ccco2)cc1OC (configuration not stated) |  | inactive: -6.61%
CC(C)N(C(=O)NC(=O)Nc1ccccn1)S(C)(=O)=O |  | inactive: -0.173%
Cc1ccc(S(=O)(=O)NCc2ccccc2)cc1C(=O)NC1CCCCC1 | inconclusive: 70.8 µM [quencher, side channel, single point] | 
c1ccc(COc2ccc(OCCCNC3CCCC3)cc2)cc1 | inconclusive: 35.5 µM [quencher, side channel, single point] | 
CNC(=S)n1cnc(N)n1 | inconclusive: 11.2 µM [inhibitor, partial curve, poor fit] | 
COC(=O)C1=C(C)N(C)C(=S)NC1c1ccccc1 (configuration not stated) | inconclusive: 17.8 µM [fluorescent, side channel, full curve, poor fit] | 
O=C(Cc1cccs1)NNC(=O)C12CC3CC(CC(C3)C1)C2 | inconclusive: 112 µM [fluorescent, side channel, partial curve] | 
